Reference: US8940740B2, “Small molecule inhibitors of bacterial motility and a high throughput screening assay for their identification” (priority 2010, dated 2015)
At least one structure is not confirmed: it was looked up by name or label, or the drawing left a doubt.

Assays:
[1] = test system: Vibrio cholerae strain C7258; assay: Bacterial motility in 384-well soft agar HTS assay, off-site OD615 reading; format: cell-based; settings: assay validation; phenamil at 100 μM
[2] = test system: Vibrio cholerae strain C7258; assay: Bacterial viability/toxicity readout with alamarBlue in 384-well soft agar HTS assay; format: cell-based; settings: assay validation; phenamil at 100 μM

CN(C)[C@@H]1C(O)=C(C(N)=O)C(=O)[C@@]2(O)C(O)=C3C(=O)c4c(O)cccc4[C@@](C)(O)[C@H]3C[C@@H]12 [tetracycline, reference compound]
Effect on motility (OD615 reading) [1]: appear non-motile
Effect on viability (alamarBlue reading) [2]: killed the bacteria
